{"source": "PubChem BioAssay AID1671195, Yale University | 2021", "screen": "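Regulators of LDL receptor activity judged by labelled LDL uptake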 (primary screen)", "cell system": "human Huh7 hepatoma cells", "reagent": "siRNA pool against human genes, 18 nM", "time to read-out": "about 2 to 2.5 days of knockdown, then 8 h LDL uptake", "treatment": "DiI-labelled LDL at 30 µg/ml for 8 h, in lipoprotein-deficient serum medium", "measured": "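Per-cell DiI-LDL intensity by automated imaging; well means scaled to the plate median and given as a robust z-score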", "reading the numbers": "robust z-score: higher = more LDL uptake after knockdown", "call rule": "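a gene counts as active if at least two replicate z-scores exceed ±2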", "note": "This is an unselected part of about 22,000 deposited reagents. About 1,510 of all reagents (6.9%) count as active. 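Active includes knockdowns raising or lowering LDL uptake; positive z-scores mean more uptake, negative mean less.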"}
{"target": "OR52N5 (GeneID 390075)", "robust z-score, replicate 1": 3.3, "robust z-score, replicate 2": 3.27, "robust z-score, replicate 3": 2.96, "Outcome": "active"}
{"target": "IGSF5 (GeneID 150084)", "robust z-score, replicate 1": 0.653, "robust z-score, replicate 2": 0.383, "robust z-score, replicate 3": 0.121, "Outcome": "inactive"}
{"target": "ATP9B (GeneID 374868)", "robust z-score, replicate 1": 1.11, "robust z-score, replicate 2": 0.325, "robust z-score, replicate 3": 1.21, "Outcome": "inactive"}
{"target": "LOC441341 (retired record) (GeneID 441341)", "robust z-score, replicate 1": -1.07, "robust z-score, replicate 2": -0.913, "robust z-score, replicate 3": -0.426, "Outcome": "inactive"}
{"target": "POFUT2 (GeneID 23275)", "robust z-score, replicate 1": -0.707, "robust z-score, replicate 2": 0.987, "robust z-score, replicate 3": -0.00846, "Outcome": "inactive"}
{"target": "NUP160 (GeneID 23279)", "robust z-score, replicate 1": -1.27, "robust z-score, replicate 2": 1.14, "robust z-score, replicate 3": -0.465, "Outcome": "inactive"}
{"target": "MXD1 (GeneID 4084)", "robust z-score, replicate 1": 0.751, "robust z-score, replicate 2": 0.451, "robust z-score, replicate 3": 0.511, "Outcome": "inactive"}
{"target": "APOE (GeneID 348)", "robust z-score, replicate 1": 0.138, "robust z-score, replicate 2": 0.907, "robust z-score, replicate 3": -0.532, "Outcome": "inactive"}
{"target": "ARHGEF7 (GeneID 8874)", "robust z-score, replicate 1": 3.02, "robust z-score, replicate 2": 3.36, "robust z-score, replicate 3": 2.41, "Outcome": "active"}
{"target": "FCRL1 (GeneID 115350)", "robust z-score, replicate 1": -0.649, "robust z-score, replicate 2": -1.03, "robust z-score, replicate 3": -1.21, "Outcome": "inactive"}
{"target": "SESTD1 (GeneID 91404)", "robust z-score, replicate 1": 2.04, "robust z-score, replicate 2": 2.3, "robust z-score, replicate 3": 2, "Outcome": "active"}
{"target": "SLC10A2 (GeneID 6555)", "robust z-score, replicate 1": -2.04, "robust z-score, replicate 2": -2.04, "robust z-score, replicate 3": -2.2, "Outcome": "active"}
{"target": "EPHA3 (GeneID 2042)", "robust z-score, replicate 1": -0.279, "robust z-score, replicate 2": -0.583, "robust z-score, replicate 3": -0.997, "Outcome": "inactive"}
{"target": "TMEM217 (GeneID 221468)", "robust z-score, replicate 1": 0.619, "robust z-score, replicate 2": 0.538, "robust z-score, replicate 3": 0.711, "Outcome": "inactive"}
{"target": "ZSCAN32 (GeneID 54925)", "robust z-score, replicate 1": 0.505, "robust z-score, replicate 2": 0.218, "robust z-score, replicate 3": 0.826, "Outcome": "inactive"}
{"target": "PRCC (GeneID 5546)", "robust z-score, replicate 1": -0.148, "robust z-score, replicate 2": -0.583, "robust z-score, replicate 3": 0.0585, "Outcome": "inactive"}
{"target": "KCNK16 (GeneID 83795)", "robust z-score, replicate 1": 2.23, "robust z-score, replicate 2": 0.2, "robust z-score, replicate 3": 2.07, "Outcome": "active"}
{"target": "MFNG (GeneID 4242)", "robust z-score, replicate 1": -1.13, "robust z-score, replicate 2": 1.7, "robust z-score, replicate 3": 0.133, "Outcome": "inactive"}
{"target": "MIOX (GeneID 55586)", "robust z-score, replicate 1": -0.438, "robust z-score, replicate 2": -0.544, "robust z-score, replicate 3": -0.374, "Outcome": "inactive"}
{"target": "KRTAP13-3 (GeneID 337960)", "robust z-score, replicate 1": -0.592, "robust z-score, replicate 2": -0.927, "robust z-score, replicate 3": -0.903, "Outcome": "inactive"}
{"target": "KAT8 (GeneID 84148)", "robust z-score, replicate 1": 1.9, "robust z-score, replicate 2": 2.43, "robust z-score, replicate 3": 0.512, "Outcome": "active"}
{"target": "PPP5C (GeneID 5536)", "robust z-score, replicate 1": 0.307, "robust z-score, replicate 2": 0.513, "robust z-score, replicate 3": 0.0454, "Outcome": "inactive"}
{"target": "MGAT5 (GeneID 4249)", "robust z-score, replicate 1": -1.27, "robust z-score, replicate 2": -1.48, "robust z-score, replicate 3": -1.95, "Outcome": "inactive"}
{"target": "RGS7 (GeneID 6000)", "robust z-score, replicate 1": -1.56, "robust z-score, replicate 2": -1.52, "robust z-score, replicate 3": -1.46, "Outcome": "inactive"}

A stretch from the list above, for reference:
{"target": "KRTAP13-3 (GeneID 337960)", "robust z-score, replicate 1": -0.592, "robust z-score, replicate 2": -0.927, "robust z-score, replicate 3": -0.903, "Outcome": "inactive"}
{"target": "KAT8 (GeneID 84148)", "robust z-score, replicate 1": 1.9, "robust z-score, replicate 2": 2.43, "robust z-score, replicate 3": 0.512, "Outcome": "active"}
{"target": "PPP5C (GeneID 5536)", "robust z-score, replicate 1": 0.307, "robust z-score, replicate 2": 0.513, "robust z-score, replicate 3": 0.0454, "Outcome": "inactive"}
